Results taken from PubChem BioAssay AID1439 (NMMLSC, 2008).
Among all 220,000 compounds or so, about 770 (0.35%) were called active. Inconclusive means that the source gave no clear call. Such entries were picked first, then a sample of the others. Rule as the data show it: active = binding response below about 49% or above about 150%; inconclusive = no clear call, values can overlap the other calls; inactive = in between.

Sequences of proteins named here, by UniProt entry; tags and fusion partners are left off.
UniProt P09471, whole entry, looked up: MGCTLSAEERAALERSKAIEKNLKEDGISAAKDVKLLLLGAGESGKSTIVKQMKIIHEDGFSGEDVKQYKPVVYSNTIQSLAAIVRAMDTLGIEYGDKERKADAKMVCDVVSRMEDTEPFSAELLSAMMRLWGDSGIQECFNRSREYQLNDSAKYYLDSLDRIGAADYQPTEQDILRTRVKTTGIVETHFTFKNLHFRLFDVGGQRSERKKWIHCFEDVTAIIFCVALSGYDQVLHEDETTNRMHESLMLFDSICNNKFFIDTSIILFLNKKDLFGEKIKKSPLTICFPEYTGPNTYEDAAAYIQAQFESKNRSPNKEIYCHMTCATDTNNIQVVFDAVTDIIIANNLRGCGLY

biological target: Guanine nucleotide-binding protein G(o) subunit alpha (Homo sapiens) (UniProt P09471); test: RGS7-Galphao binding modulators, primary screen, biochemical, multiplexed bead flow cytometry (AID 1439); conditions: at 10 µM, actives lie on both sides;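 also: fluorescent Galphao held in activated GDP-AlF4 state binding bead-coupled RGS7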

SMILES | binding response (% of control)
Cc1ccc(NCC(=O)N/N=C/c2cccn2C)cc1 | inconclusive: 88%
O=C(Nc1ccc(F)cc1)NC1CCN(Cc2nnnn2Cc2ccco2)CC1 | inactive: 99.2%
COc1ccc(NC(=O)c2nn(C)cc2[N+](=O)[O-])cc1 | inconclusive: 57.6%
COc1ccc2c(c1)C(C1C(=O)CCCC1=O)c1ccccc1O2 (centres undefined) | inactive: 96.1%
CCCCC1=CC2=C(c3ccco3)C(=O)C(C)(OC(=O)c3ccc(OC)cc3)C(=O)C2=CN1CCCN(CC)CC (centres undefined) | inconclusive: 103%
Cc1ccc(-c2sc(-c3cccnc3)nc2CC(=O)O)cc1 | inactive: 105%
COc1ccc(C(=O)N2CC(c3ccccc3)CC2=O)cc1 (centres undefined) | inconclusive: 167%
CCC(CC)C(=O)NCc1cccnc1 | inconclusive: 92.9%
CCOC(=O)c1ccc(N2C(=O)CC(N3CCN(C/C=C/c4ccccc4)CC3)C2=O)cc1 (centres undefined) | inactive: 122%
Nc1ccc2nc3c(=O)n(C4CCCCC4)c(=O)[nH]c3nc2c1 | inconclusive: 102%
O=C(Nc1cnn(Cc2ccc(F)cc2)c1)c1cnn2c(C(F)F)cc(-c3ccccc3)nc12 | inconclusive: 73.8%
Cc1ccc(NC(=O)COC(=O)C(NS(=O)(=O)c2ccc(Cl)cc2)C(C)O)cc1 (centres undefined) | inactive: 112%
O=C(Cn1nc(C(=O)O)c2ccccc2c1=O)c1cc(F)ccc1F | inconclusive: 398%
O=C(CC1C(=O)NCCN1C(=O)Nc1ccc(F)cc1)Nc1ccc(F)cc1 (centres undefined) | inconclusive: 93.9%
CN(NC(=O)c1ccccc1F)c1ccc([N+](=O)[O-])cn1 | inconclusive: 113%
O=C(c1ccc2ccccc2c1)C1CCCN(C(=O)c2cnccn2)C1 (centres undefined) | inconclusive: 92.5%
CCOC(=O)/C=c1\s/c(=C\c2sccc2C)c(=O)n1CC(=O)NCc1ccc(C)cc1 | inactive: 97.6%
CCOC(=O)c1cc(=O)c2ccc(OCC(=O)Nc3ccc(F)cc3)cc2o1 | inconclusive: 109%
O=C(Nc1ccc(N2CCOCC2)cc1)c1cc(-c2ccncc2)nc2ccccc12 | inconclusive: 98.2%
CCN(CC)C(=O)Oc1cc(COC)nc(-c2ccccc2)n1 | inconclusive: 101%
Cc1ccc(C)c(S(=O)(=O)Nc2ccc(O)c(Sc3ncn[nH]3)c2)c1 | inconclusive: 104%
CN(CC(=O)OCC(=O)NC(=O)c1cccn1C)S(=O)(=O)c1ccc(Cl)cc1 | inactive: 99.3%
CCCCN(CC)c1nc(N)c2c(N)nc(OCC)cc2c1C#N | inactive: 97.4%
Cn1cc(/C=C2\SC(=S)N(NC(=O)c3cccc(Cl)c3)C2=O)c2ccccc21 | inconclusive: 107%

An excerpt from above in order of formula weight, largest number first.
SMILES | binding response (% of control)
O=C(c1ccc2ccccc2c1)C1CCCN(C(=O)c2cnccn2)C1 (centres undefined) | inconclusive: 92.5%
O=C(Cn1nc(C(=O)O)c2ccccc2c1=O)c1cc(F)ccc1F | inconclusive: 398%
CCC(CC)C(=O)NCc1cccnc1 | inconclusive: 92.9%
